According to article PMC3682905:
Results are given in words; binding and its absence hold for the method and conditions named. In cells and extracts the contact can be indirect.

Biological target: KAP1/TRIM28/TIF1-β (mouse (endogenous in mESCs)), Q62318
Assay: co-IP; 200 μg nuclear extract diluted to approximately 170 mM KCl; IP overnight at 4°C with mouse monoclonal anti-KAP1, anti-G9a or mouse IgG; protein G-Dynabeads; washes in 20 mM HEPES pH 7.9, 200 mM KCl, 1% NP-40, 10% glycerol; Western blot
Conditions: remark: other sources report otherwise

B1: G9a, Q9Z148 1-1263 (protein)
chain: MRGLPRGRGLMRARGRGRAAPTGGRGRGRGGAHRGRGRPRSLLSLPRAQASWAPQLPAGLTGPPVPCLPSQGEAPAEMGALLLEKEPRGAAERVHSSLGDTPQSEETLPKANPDSLEPAGPSSPASVTVTVGDEGADTPVGAASLIGDEPESLEGDGGRIVLGHATKSFPSSPSKGGACPSRAKMSMTGAGKSPPSVQSLAMRLLSMPGAQGAATAGPEPSPATTAAQEGQPKVHRARKTMSKPSNGQPPIPEKRPPEVQHFRMSDDMHLGKVTSDVAKRRKLNSGSLSEDLGSAGGSGDIILEKGEPRPLEEWETVVGDDFSLYYDAYSVDERVDSDSKSEVEALAEQLSEEEEEEEEEEEEEEEEEEEEEEEEEDEESGNQSDRSGSSGRRKAKKKWRKDSPWVKPSRKRRKREPPRAKEPRGVNGVGSSGPSEYMEVPLGSLELPSEGTLSPNHAGVSNDTSSLETERGFEELPLCSCRMEAPKIDRISERAGHKCMATESVDGELLGCNAAILKRETMRPSSRVALMVLCEAHRARMVKHHCCPGCGYFCTAGTFLECHPDFRVAHRFHKACVSQLNGMVFCPHCGEDASEAQEVTIPRGDGGTPPIGTAAPALPPLAHDAPGRADTSQPSARMRGHGEPRRPPCDPLADTIDSSGPSLTLPNGGCLSAVGLPPGPGREALEKALVIQESERRKKLRFHPRQLYLSVKQGELQKVILMLLDNLDPNFQSDQQSKRTPLHAAAQKGSVEICHVLLQAGANINAVDKQQRTPLMEAVVNNHLEVARYMVQLGGCVYSKEEDGSTCLHHAAKIGNLEMVSLLLSTGQVDVNAQDSGGWTPIIWAAEHKHIDVIRMLLTRGADVTLTDNEENICLHWASFTGSAAIAEVLLNAQCDLHAVNYHGDTPLHIAARESYHDCVLLFLSRGANPELRNKEGDTAWDLTPERSDVWFALQLNRKLRLGVGNRAVRTEKIICRDVARGYENVPIPCVNGVDGEPCPEDYKYISENCETSTMNIDRNITHLQHCTCVDDCSSSNCLCGQLSIRCWYDKDGRLLQEFNKIEPPLIFECNQACSCWRSCKNRVVQSGIKVRLQLYRTAKMGWGVRALQTIPQGTFICEYVGELISDAEADVREDDSYLFDLDNKDGEVYCIDARYYGNISRFINHLCDPNIIPVRVFMLHQDLRFPRIAFFSSRDIRTGEELGFDYGDRFWDIKSKYFTCQCGSEKCKHSAEAIALEQSRLARLDPHPELLPDLSSLPPINT
For B1, the binding was “no binding”.
